# Laboratory results: patent US11738092B2, “Methods and compositions for synthesis of therapeutic nanoparticles” (priority 2019, dated 2023)
# Assay: Alizarin Red S (ARS) detection assay: number of NPBA per Tf
# Conditions: CN divided by the known concentration of Tf
substance,measurement,setting,value
mono-NPBA-PEG5k-Tf,NTf = (NPBA per Tf),,1 NPBA per Tf
same,NTf = (NPBA per Tf),listed as Mono-NPBA-PEG5k-Tf (+ citrate),0.91 NPBA per Tf
same,NTf = (NPBA per Tf),listed as Mono-NPBA-PEG5k-Tf (- citrate),1.05 NPBA per Tf
